## Screening data

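Genome-wide siRNA knockdown in TC32 Ewing sarcoma cells, comparing luciferase light from an NR0B1-promoter reporter with a CMV-promoter reporter 48 hours after transfection.
Each siRNA was applied at 20 nM.
A z-score of the log NR0B1-over-CMV signal, less the median of siRNAs with the same seed; more negative means a stronger specific loss of the NR0B1 reporter.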

The strongest results of the screen are mostly left out here.
Sequences are the guide (antisense) strand, without overhang.

Sequence	target gene	seed-corrected z-score
UGUUUAUUAAGAUUGUUUG	BRI3BP	-0.6907
AGACUUUAUAUGGUGUCUG	CD3E	-0.9983
UUUGAUGUAGAUGUCGCUC	FER1L5	-0.1637
UUUACUGUCUGUAUCUCCC	NDP	1.432
UGUAGUCCUGGAUUGACUC	FAM89B	0.896
AUAAGUUCGCUUCCUAGGC	RPRD1A	0.2922
ACCCAUAUGACCUAAGUGC	UNC13C	0.5882
UGGUCGAUUCAGAUAAUCC	FAM133B	0.2037
AAAGUCGUCAUAAAUAAAG	ZFP36	0.654
AGAGUUCAUAGGCAUUAGG	PRMT5	-0.09717
UCAAUAAGCAGGUAGUGGU	ZNF581	0.5421
UGUAAUGUUUGUCCAAUUC	GCNT6	0.2071
UAUCGGUUUGAUUCGCAGC	APLF	-0.4806
UUUCAGUUCGCUGUGCUCG	SNAPC2	0.7419
UGAUCUACAGAUGUUGAGC	ITSN1	0.4753
UUUCUCUGGUCAGAUGUCC	LILRB3	-0.6968
UCUGGAUCAGUUGUAUCGC	SLC22A13	-0.5382
AUGUCAAUAACCAUCUUCC	PDE4B	-1.789
UUCUUUGAACUCGCGAGCG	C9orf163	0.4263
UCUAUAUCAGUAGUGAUUG	CFAP44	-0.1551
UUCAGGAUGAUAUCUAGGA	KCNH4	0.9943
UUUGGUGAUAUAGAGGUAG	KDELR1	0.6643
UAACUGAGGAAUAGCAGGC	OR5T2	-0.626
UCCGAUGUAGGUGAUCUGC	GSG1	-0.05259
ACUGGGAUCGGAUCCUCAC	C20orf141	1.547
UUGAGGGCUCCGUAGAUAC	SLC25A37	-0.1396
UCCACAAUCAGUUGACUCG	YKT6	0.2796
UACAACUUCUUUUAGACUC	GOT1L1	0.2223
UCCCUUCUCGUGAAGCACC	HS6ST1P1	0.8114
UGUUCAGCGAGUAGAAGGC	IRX4	-0.2893
UAUGUGAUCUUGCAGGGUG	CCNJL	0.8079
UUAGUAGUUCAUCCAGUUG	DNAJC1	-0.1942
UCUCUUGAAACAGGUGCCG	CHRND	-0.2618
UGACGUGCAAGGUAUGCUU	ZNF888	-0.3932
UGGUUUUGGAGUUGUAGCG	MSTO1	-0.3442
UUCGUUUCAGUGCAAACCC	CIR1	0.8126
UUCCUGAUGGUCUUUAUCG	SMIM23	-0.1538
AAUCUGAUCGGCAUAGUUC	MAPK8IP3	-0.3581
UUCUGCAACGCCUUGGUCA	NKPD1	-1.547
AUCGAUACCAUCUUCGUCC	ARHGAP36	0.1225
AUCUAAACCAGAGCUCUCG	TBCC	-1.129
UCUCUUUUCCAACUUGUCG	RPL26L1	-0.9514
UCUGUGCCGAGUACCAUCC	DKK2	-0.09179
UUUGCAUCUAGAUUGAAAC	CRNDE	-0.0441
UCAUGACCCACCACCAGCU	ISG20	0.03818
UCUGGAACGACUUUCUCAG	PPP1R35	0.2401
UUAAUCACCAGCACUAACG	PAPD4	-0.00411
UCUGGGUUUUCUGCUUUCU	IVL	2.261
AAAGAUACACCAGCGGCUC	TLR4	-0.9316
UAAAUCAUCCGGGAAGGAG	KLF17	-0.06188
UUUUCUCAUACGGUUGUAG	FRYL	-0.6781
ACAUUGACCACGUUCCAGC	AFP	0.9238
UGUAUAAUCUCCAUGCUCC	NEK5	0.5072
UACUGUCUGACGGUUCACC	BAP1	0.0419
UUCCUAGUCAAGGAACUCC	WFDC21P	0.6912
UUUCGGAUUACAUUUGACU	ZBTB48	0.9062
UCCUCGUACUCGUACAACC	RPL26P11	0.6223
UGAUGUUGUCUGUUGAUCC	MAP2	1.839
UUUGGGAUUGAAGAUCUUC	MAGEA10	0.2513
UAUAUCUCCAAAGCCGUAG	RECQL	-0.0988
UUUUUGACGAGUACUUCGG	MTDH	0.1388
AAAUUGACAGGGACUUCUG	HMGB3P24	1.495
UUUCUUGGACUUGAGUUCC	TP53TG5	1.254
AAUCGAAAAUCUUGCAUUC	USH2A	-0.8431
AACCUCUUCUUUGAACUGC	BECN1	0.3107
AACGUGUCGAGUUUACCGC	MARK3	-0.6579
UAUGUACUGACCCAUAUUC	SLC26A7	0.8337
UAUGUCUAUGACGUGGUCC	FBXW5	-0.3452
UUGGUAUCCAUAGACAUCC	GANC	-0.1441
UCAUGGACCAGAUAAUCUC	CES4A	0.236
AUACGCAACACUAUUAGAC	SCAI	-0.217
UGAAUAUCAAGGCGUAUUC	PIGR	0.2905
UACCAGGUCUGUAACGAUG	H3F3AP5	-0.1575
UCAGGUAUUCCGUGUAUGC	VPS9D1	0.2343
UAUAAUCUCUGAGUAAUCU	PDCD2	0.694
AAUGUAGCUACAGAAGAGC	MUC7	1.151
UUUUGAUCAUCUCGAUUGC	MANEA	-1.863
AAAGGGAAUGUUGAACGUG	LOC729316	0.1285
UUGCUGAACACUCUGACGG	PNLDC1	0.8973

Some entries from above, unchanged:

For AUACGCAACACUAUUAGAC against SCAI the result was seed-corrected z-score -0.217.
For AAAGUCGUCAUAAAUAAAG against ZFP36 the result was seed-corrected z-score 0.654.
For UGGUUUUGGAGUUGUAGCG against MSTO1 the result was seed-corrected z-score -0.3442.
For UUUUUGACGAGUACUUCGG against MTDH the result was seed-corrected z-score 0.1388.
For UGACGUGCAAGGUAUGCUU against ZNF888 the result was seed-corrected z-score -0.3932.

Source: PubChem BioAssay AID1159506 (NCATS, 2015).